According to patent US8889425B2 (Bayerische Julius-Maximilians-Universität Würzburg, priority 2003, dated 2014):
At least one compound was matched to its structure with a doubt left.

Tested on: adenylyl cyclase
Experiment: FRET-signal produced by direct activators of adenylyl cyclase
Type: cell-based
Details: direct activator of adenylyl cyclase

## C=C[C@@]1(C)CC(=O)[C@]2(O)[C@@]3(C)[C@@H](O)CCC(C)(C)[C@@H]3[C@H](O)[C@H](OC(C)=O)[C@@]2(C)O1 [forskolin]
  FRET-signal: produce a detectable FRET-signal
